Source: patent US20150166963A1
Results are given in words; binding and its absence hold for the method and conditions named. Some binding calls cover weakened binding; strength is not graded here.

Amino acid sequences for entries named in this document (tags omitted). Residues count along the entry.
UniProt P46531, residues 1426-1731: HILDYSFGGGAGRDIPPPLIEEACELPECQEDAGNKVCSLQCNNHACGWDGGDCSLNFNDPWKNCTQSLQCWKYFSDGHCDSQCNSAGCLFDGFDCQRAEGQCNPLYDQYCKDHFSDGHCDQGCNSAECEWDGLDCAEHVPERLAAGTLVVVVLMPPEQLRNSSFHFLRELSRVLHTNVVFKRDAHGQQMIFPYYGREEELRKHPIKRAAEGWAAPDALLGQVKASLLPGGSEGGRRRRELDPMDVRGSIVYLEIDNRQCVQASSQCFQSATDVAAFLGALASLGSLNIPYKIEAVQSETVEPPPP

Target: recombinant human Notch1 protein (human) (UniProt P46531)
Assay: ELISA of HEK 293 conditioned media for Notch1 binding activity; humanized heavy chain with murine 52M51 light chain

B1: 52M51-H4 humanized heavy chain cotransfected with the murine 52M51 light chain (antibody, human IgG2, V domains shown)
VH: QVQLVQSGAEVKKPGASVKISCKVSGYTLRGYWIEWVRQAPGKGLEWIGQILPGTGRTNYNEKFKGRVTMTADTSTDTAYMELSSLRSEDTAVYYCARFDGNYGYYAMDYWGQGTTVTVSS
VL: QAVVTQESALTTSPGETVTLTCRSSTGAVTTSNYANWVQEKPDHLFTGLIGGTNNRAPGVPARFSGSLIGDKAALTITGAQTEDEAIYFCALWYSNHWVFGGGTKLTVLG
For B1, the binding was “binds”.
